Results deposited as PubChem BioAssay AID1259405 (NCATS, 2018)
Purpose: 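Silenced genes that increase secreted GFP made by CHO cells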 (primary screen). Cell system: Chinese hamster CHO-K1 ovary cells with stable secreted eGFP expression. Knock-down reagent: single siRNA against mouse genes, 0.8 pmol siRNA per well (2 µl of 400 nM stock). Timing: 3 days. Measured: 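Percent of the per-plate non-targeting control median for intracellular GFP per well by laser scanning cytometry and for cell viability by ATP luminescence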. Direction: GFP, % of control: higher = more GFP per well, higher productivity; viability (ATP), % of control: higher = more viable cells (more ATP). Call rule: 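Called active when intracellular GFP, relative to negative control, is at or above 120%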.
The deposit covers about 50,000 reagents; this is a random part of them. In the full data, about 4,000 (8%) were called active. 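Mouse siRNA library applied to hamster cells; one well for each siRNA.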 Reagents against one gene are numbered here. No sequences are given here.

no.	gene symbol	reagent	GFP, % of control	viability (ATP), % of control	activity call
1	Ppp2r1a (GeneID 51792)	1	83.3	92.8	inactive
2	Ppp2r1a (GeneID 51792)	2	62.9	78.8	inactive
3	Ppp2r1a (GeneID 51792)	3	88.3	101	inactive
4	Prm3 (GeneID 19120)	1	155	87.3	active
5	Prm3 (GeneID 19120)	2	90.7	67.5	inactive
6	Prm3 (GeneID 19120)	3	98.1	64	inactive
7	Krt87 (GeneID 406219)	1	103	64.5	inactive
8	Krt87 (GeneID 406219)	2	84	50	inactive
9	Gtf2a2 (GeneID 235459)	1	66.3	64.1	inactive
10	Gtf2a2 (GeneID 235459)	2	86.8	50.9	inactive
11	Gtf2a2 (GeneID 235459)	3	71.3	75.9	inactive
12	Patz1 (GeneID 56218)	1	43.4	58.1	inactive
13	Patz1 (GeneID 56218)	2	82.6	87.1	inactive
14	Patz1 (GeneID 56218)	3	61.2	78.7	inactive
15	Gas2l1 (GeneID 78926)	1	88	77.3	inactive
16	Gas2l1 (GeneID 78926)	2	62.5	59	inactive
17	Gas2l1 (GeneID 78926)	3	80	101	inactive
18	Cnn3 (GeneID 71994)	1	58.2	46.4	inactive
19	Cnn3 (GeneID 71994)	2	80	87.6	inactive
20	Cnn3 (GeneID 71994)	3	91.5	73.3	inactive
21	Ptprd (GeneID 19266)	1	91.3	64.3	inactive
22	Ptprd (GeneID 19266)	2	54.2	35.9	inactive
23	Ptprd (GeneID 19266)	3	118	114	inactive
24	Zhx3 (GeneID 320799)	1	64.1	57.4	inactive
25	Zhx3 (GeneID 320799)	2	55.6	62.1	inactive
26	Fam120b (GeneID 67544)	1	196	85.2	active
27	Fam120b (GeneID 67544)	2	83.9	78	inactive
28	Fam120b (GeneID 67544)	3	84.4	117	inactive
29	Fzd2 (GeneID 57265)	1	79.9	105	inactive
30	Fzd2 (GeneID 57265)	2	84.1	60.7	inactive
31	Nxt2 (GeneID 237082)	1	71.4	60.7	inactive
32	Nxt2 (GeneID 237082)	2	55.7	60.4	inactive
33	Nxt2 (GeneID 237082)	3	107	70.6	inactive
34	Rbm7 (GeneID 67010)	1	98.5	96.3	inactive
35	Rbm7 (GeneID 67010)	2	78.8	85.3	inactive
36	Gsdmc2 (GeneID 331063)	1	147	88.5	active
37	Gsdmc2 (GeneID 331063)	2	77.9	70.2	inactive
38	Gsdmc2 (GeneID 331063)	3	145	113	active
39	Fiz1 (GeneID 23877)	1	58	71.1	inactive
40	Fiz1 (GeneID 23877)	2	65.5	68.1	inactive
41	Fiz1 (GeneID 23877)	3	105	104	inactive
42	Slc26a2 (GeneID 13521)	1	45.2	68.4	inactive
43	Slc26a2 (GeneID 13521)	2	95.7	62.5	inactive
44	Slc26a2 (GeneID 13521)	3	183	102	active
45	Slc26a2 (GeneID 13521)	4	113	79.5	inactive
46	Slc26a2 (GeneID 13521)	5	114	82	inactive
47	Slc26a2 (GeneID 13521)	6	79.1	92	inactive
48	Svopl (GeneID 320590)	1	70.1	63.2	inactive
49	Svopl (GeneID 320590)	2	86.4	111	inactive
50	Svopl (GeneID 320590)	3	59	94.6	inactive
51	Ctsm (GeneID 64139)	1	56.2	114	inactive
52	Ctsm (GeneID 64139)	2	81.9	74.3	inactive
53	Ctsm (GeneID 64139)	3	52.5	73.2	inactive
54	Trim16 (GeneID 94092)	1	113	61.3	inactive
55	Trim16 (GeneID 94092)	2	84	80.7	inactive
56	Trim16 (GeneID 94092)	3	121	94.8	active
57	Slc13a5 (GeneID 237831)	1	55.8	66.2	inactive
58	Slc13a5 (GeneID 237831)	2	32.3	44.6	inactive
59	Slc13a5 (GeneID 237831)	3	81.8	79.3	inactive
60	Utp25 (GeneID 215193)	1	89.4	69.7	inactive
61	Utp25 (GeneID 215193)	2	18.9	46.6	inactive
62	Utp25 (GeneID 215193)	3	74.8	81.5	inactive
63	Or5h26 (GeneID 258775)	1	71.3	95.5	inactive
64	Or5h26 (GeneID 258775)	2	69.2	76.5	inactive
65	Or5h26 (GeneID 258775)	3	45.6	77.1	inactive
66	Chil6 (GeneID 229688)	1	91.7	75.4	inactive
67	Chil6 (GeneID 229688)	2	113	92.8	inactive
68	Chil6 (GeneID 229688)	3	51.7	58.6	inactive
69	Zpld1 (GeneID 239852)	1	79.3	64.2	inactive
70	Zpld1 (GeneID 239852)	2	47.7	33	inactive
71	Zpld1 (GeneID 239852)	3	62.5	97.3	inactive
72	Ush2a (GeneID 22283)	1	88.7	80.1	inactive
73	Ush2a (GeneID 22283)	2	79.9	88.1	inactive
74	Ush2a (GeneID 22283)	3	83.1	73.2	inactive
75	Cimip3 (GeneID 75462)	1	125	88.8	active
76	Cimip3 (GeneID 75462)	2	65.5	61.6	inactive
77	Cimip3 (GeneID 75462)	3	55.3	55.4	inactive
78	Atp9a (GeneID 11981)	1	84.2	85.8	inactive
79	Atp9a (GeneID 11981)	2	73.7	81.9	inactive
80	Atp9a (GeneID 11981)	3	60.2	66.4	inactive
81	Lipc (GeneID 15450)	1	75.1	94.1	inactive
82	Lipc (GeneID 15450)	2	52.8	72.6	inactive
83	Lipc (GeneID 15450)	3	23.2	21.2	inactive
84	Ndst2 (GeneID 17423)	1	97.4	65.8	inactive
85	Ndst2 (GeneID 17423)	2	106	154	inactive
86	Ndst2 (GeneID 17423)	3	110	120	inactive

8 consecutive entries from above, for reference:
no.	gene symbol	reagent	GFP, % of control	viability (ATP), % of control	activity call
60	Utp25 (GeneID 215193)	1	89.4	69.7	inactive
61	Utp25 (GeneID 215193)	2	18.9	46.6	inactive
62	Utp25 (GeneID 215193)	3	74.8	81.5	inactive
63	Or5h26 (GeneID 258775)	1	71.3	95.5	inactive
64	Or5h26 (GeneID 258775)	2	69.2	76.5	inactive
65	Or5h26 (GeneID 258775)	3	45.6	77.1	inactive
66	Chil6 (GeneID 229688)	1	91.7	75.4	inactive
67	Chil6 (GeneID 229688)	2	113	92.8	inactive
